# Source: PubChem BioAssay AID743121 (NCATS, 2013)
# Test: 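Partners whose loss is lethal together with topoisomerase I blockade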 (primary screen)
# Cells: MDA-MB-231 cells, a human breast cancer line
# Reagent: single siRNA against human genes, 20 nM siRNA (0.8 pmol per well)
# Timing: 120 h (drug added 48 h after transfection, read 72 h later)
# Challenge: camptothecin 20 nM (about EC30) for 72 h; vehicle 0.1% DMSO in parallel plates
# Measured: 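Cell viability by ATP luminescence (CellTiter-Glo) as % of non-targeting siRNA wells, and the log2 ratio of viability without drug over viability with camptothecin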
# Direction: log2 vehicle/camptothecin viability: higher = stronger sensitisation to camptothecin; viability with camptothecin and viability without drug: higher = more viable cells
# Call rule: 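Each gene scored by redundant siRNA activity (RSA) over its individual siRNA ratios; a gene is called active at p < 0.001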
# Here is a random part of about 26,000 deposited reagents. 167 of all reagents (0.63%) were called active. 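Calls are per gene from RSA p-values that are not deposited; an individual active-marked siRNA can sensitise only weakly.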 The numbers tell different reagents against one gene apart. No sequences are given here.
gene knocked down,siRNA no.,log2 vehicle/camptothecin viability,viability with camptothecin (% of control),viability without drug (% of control),activity call
OMA1 (GeneID 115209),1,-0.0304,84.6,82.9,inactive
OMA1 (GeneID 115209),2,-0.246,93.8,79.1,inactive
OMA1 (GeneID 115209),3,-0.0901,73.8,69.3,inactive
OMA1 (GeneID 115209),4,-0.232,91.9,78.3,inactive
MYH9 (GeneID 4627),1,-0.313,107,86,inactive
MYH9 (GeneID 4627),2,0.14,26.3,28.9,inactive
MYH9 (GeneID 4627),3,-0.141,51.2,46.4,inactive
NEUROD2 (GeneID 4761),1,0.115,74.9,81.1,inactive
NEUROD2 (GeneID 4761),2,1.13,27.7,60.6,inactive
NEUROD2 (GeneID 4761),3,-0.0738,130,124,inactive
NEUROD2 (GeneID 4761),4,-0.0121,76.2,75.6,inactive
CYP4X1 (GeneID 260293),1,0.238,71.8,84.7,inactive
CYP4X1 (GeneID 260293),2,-0.0407,90.2,87.7,inactive
CYP4X1 (GeneID 260293),3,0.539,24.5,35.6,inactive
CYP4X1 (GeneID 260293),4,-0.492,52.6,37.4,inactive
CTSE (GeneID 1510),1,0.0728,66.1,69.5,inactive
CTSE (GeneID 1510),2,-0.029,65.7,64.4,inactive
CTSE (GeneID 1510),3,-0.407,52.4,39.5,inactive
CTSE (GeneID 1510),4,-0.307,103,83.1,inactive
GRM5 (GeneID 2915),1,0.167,86.2,96.8,inactive
GRM5 (GeneID 2915),2,0.19,109,125,inactive
GRM5 (GeneID 2915),3,-0.0195,42.9,42.3,inactive
GRM5 (GeneID 2915),4,-0.108,95.4,88.5,inactive
PDIA2 (GeneID 64714),1,-0.452,81.4,59.5,inactive
PDIA2 (GeneID 64714),2,-0.213,69.9,60.3,inactive
PDIA2 (GeneID 64714),3,-0.291,46.3,37.9,inactive
PDIA2 (GeneID 64714),4,-0.514,138,96.5,inactive
CTSW (GeneID 1521),1,0.278,48.2,58.5,inactive
CTSW (GeneID 1521),2,-0.258,80.9,67.7,inactive
CTSW (GeneID 1521),3,-0.352,76.7,60.1,inactive
GUCY1A1 (GeneID 2982),1,0.711,54.5,89.2,inactive
GUCY1A1 (GeneID 2982),2,-0.0626,91.4,87.5,inactive
GUCY1A1 (GeneID 2982),3,-0.472,90.1,65,inactive
GUCY1A1 (GeneID 2982),4,-0.468,65.1,47.1,inactive
EMX1 (GeneID 2016),1,-0.313,44.6,35.9,inactive
EMX1 (GeneID 2016),2,-0.148,103,92.8,inactive
EMX1 (GeneID 2016),3,0.0463,59.5,61.4,inactive
EMX1 (GeneID 2016),4,-0.0937,85.8,80.4,inactive
SNAP29 (GeneID 9342),1,0.599,46.9,71.1,inactive
SNAP29 (GeneID 9342),2,-0.283,93.5,76.9,inactive
SNAP29 (GeneID 9342),3,0.0416,87,89.6,inactive
SNAP29 (GeneID 9342),4,-0.722,55.1,33.4,inactive
TINAG (GeneID 27283),1,-0.17,115,102,inactive
TINAG (GeneID 27283),2,0.0679,69.1,72.5,inactive
TINAG (GeneID 27283),3,0.157,74.3,82.8,inactive
TINAG (GeneID 27283),4,-0.176,98,86.7,inactive
ALDH1B1 (GeneID 219),1,-0.165,76.8,68.5,inactive
ALDH1B1 (GeneID 219),2,-0.572,84,56.5,inactive
ALDH1B1 (GeneID 219),3,0.212,72.3,83.7,inactive
ALDH1B1 (GeneID 219),4,-0.00917,80.6,80.1,inactive
KLK8 (GeneID 11202),1,0.235,46.8,55.1,inactive
KLK8 (GeneID 11202),2,-0.152,57.2,51.5,inactive
KLK8 (GeneID 11202),3,-0.237,16.5,14,inactive
KLK8 (GeneID 11202),4,-0.21,43.9,37.9,inactive
RDH13 (GeneID 112724),1,-0.113,90.2,83.4,inactive
RDH13 (GeneID 112724),2,-0.339,75.8,60,inactive
RDH13 (GeneID 112724),3,0.0233,25.8,26.2,inactive
RDH13 (GeneID 112724),4,-0.0981,61.3,57.3,inactive
NDUFS4 (GeneID 4724),1,-0.0559,113,108,inactive
NDUFS4 (GeneID 4724),2,-0.502,88.9,62.8,inactive
NDUFS4 (GeneID 4724),3,-0.409,140,105,inactive
NDUFS4 (GeneID 4724),4,-0.0956,99.6,93.2,inactive
SNW1 (GeneID 22938),1,0.506,3.24,4.6,inactive
SNW1 (GeneID 22938),2,-0.577,38.6,25.8,inactive
SNW1 (GeneID 22938),3,-0.287,27.4,22.5,inactive
SNW1 (GeneID 22938),4,-0.471,20.6,14.9,inactive
ZNF85 (GeneID 7639),1,-0.0416,100,97.6,inactive
ZNF85 (GeneID 7639),2,-0.157,68.8,61.7,inactive
ZNF85 (GeneID 7639),3,-0.0397,101,97.8,inactive
ZNF85 (GeneID 7639),4,0.601,64.1,97.2,inactive
